From patent US20050226848, “Transcriptional regulation of gene expression by small double-stranded modulatory RNA” (published 2005)
Results from cells or extracts need not show a direct contact. Protein sequences can lack the tags named with them. For some of these results: Construct, isoform or probe ends are uncertain for at least one entry.

Key:
NRSF/REST (endogenous) = target: T1, NRSF/REST (endogenous) (UniProt O54963); assay: pull-down; details: streptavidin beads, western blot, protein in an extract
T1 sequence (looked up, limits assumed): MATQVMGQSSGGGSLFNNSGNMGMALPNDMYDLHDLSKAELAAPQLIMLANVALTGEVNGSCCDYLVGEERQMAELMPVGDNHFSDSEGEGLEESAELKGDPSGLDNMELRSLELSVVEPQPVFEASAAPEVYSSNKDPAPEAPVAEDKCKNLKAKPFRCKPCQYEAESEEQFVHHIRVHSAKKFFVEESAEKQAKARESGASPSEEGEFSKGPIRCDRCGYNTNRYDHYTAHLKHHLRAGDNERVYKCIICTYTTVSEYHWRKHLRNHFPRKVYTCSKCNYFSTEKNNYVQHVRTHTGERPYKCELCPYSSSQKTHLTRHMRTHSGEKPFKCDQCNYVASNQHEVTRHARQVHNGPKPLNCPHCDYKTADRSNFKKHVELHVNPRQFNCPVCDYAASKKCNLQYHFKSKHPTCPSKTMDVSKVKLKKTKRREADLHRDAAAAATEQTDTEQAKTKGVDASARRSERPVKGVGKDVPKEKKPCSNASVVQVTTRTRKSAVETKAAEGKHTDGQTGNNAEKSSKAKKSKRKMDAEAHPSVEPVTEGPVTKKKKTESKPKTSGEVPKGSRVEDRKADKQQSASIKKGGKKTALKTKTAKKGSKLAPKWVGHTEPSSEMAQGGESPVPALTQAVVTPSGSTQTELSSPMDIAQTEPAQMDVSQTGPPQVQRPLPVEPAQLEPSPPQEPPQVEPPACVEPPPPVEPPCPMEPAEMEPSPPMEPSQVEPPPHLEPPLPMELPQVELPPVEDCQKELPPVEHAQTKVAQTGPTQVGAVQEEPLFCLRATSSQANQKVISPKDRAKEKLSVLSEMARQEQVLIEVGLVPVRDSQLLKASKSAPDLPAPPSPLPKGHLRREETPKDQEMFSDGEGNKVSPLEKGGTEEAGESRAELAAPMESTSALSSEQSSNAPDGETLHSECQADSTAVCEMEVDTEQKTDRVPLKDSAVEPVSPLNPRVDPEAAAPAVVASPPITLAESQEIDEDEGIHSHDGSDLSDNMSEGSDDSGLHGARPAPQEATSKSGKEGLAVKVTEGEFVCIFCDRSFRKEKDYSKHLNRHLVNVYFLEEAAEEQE

NRSF/REST (cMyc-tagged) = target: T2, NRSF/REST (cMyc-tagged) (UniProt Q13127); assay: EMSA; details: nucleic acid fixed at 20 uM, protein in a lysate after overexpression
T2 sequence (looked up, limits assumed): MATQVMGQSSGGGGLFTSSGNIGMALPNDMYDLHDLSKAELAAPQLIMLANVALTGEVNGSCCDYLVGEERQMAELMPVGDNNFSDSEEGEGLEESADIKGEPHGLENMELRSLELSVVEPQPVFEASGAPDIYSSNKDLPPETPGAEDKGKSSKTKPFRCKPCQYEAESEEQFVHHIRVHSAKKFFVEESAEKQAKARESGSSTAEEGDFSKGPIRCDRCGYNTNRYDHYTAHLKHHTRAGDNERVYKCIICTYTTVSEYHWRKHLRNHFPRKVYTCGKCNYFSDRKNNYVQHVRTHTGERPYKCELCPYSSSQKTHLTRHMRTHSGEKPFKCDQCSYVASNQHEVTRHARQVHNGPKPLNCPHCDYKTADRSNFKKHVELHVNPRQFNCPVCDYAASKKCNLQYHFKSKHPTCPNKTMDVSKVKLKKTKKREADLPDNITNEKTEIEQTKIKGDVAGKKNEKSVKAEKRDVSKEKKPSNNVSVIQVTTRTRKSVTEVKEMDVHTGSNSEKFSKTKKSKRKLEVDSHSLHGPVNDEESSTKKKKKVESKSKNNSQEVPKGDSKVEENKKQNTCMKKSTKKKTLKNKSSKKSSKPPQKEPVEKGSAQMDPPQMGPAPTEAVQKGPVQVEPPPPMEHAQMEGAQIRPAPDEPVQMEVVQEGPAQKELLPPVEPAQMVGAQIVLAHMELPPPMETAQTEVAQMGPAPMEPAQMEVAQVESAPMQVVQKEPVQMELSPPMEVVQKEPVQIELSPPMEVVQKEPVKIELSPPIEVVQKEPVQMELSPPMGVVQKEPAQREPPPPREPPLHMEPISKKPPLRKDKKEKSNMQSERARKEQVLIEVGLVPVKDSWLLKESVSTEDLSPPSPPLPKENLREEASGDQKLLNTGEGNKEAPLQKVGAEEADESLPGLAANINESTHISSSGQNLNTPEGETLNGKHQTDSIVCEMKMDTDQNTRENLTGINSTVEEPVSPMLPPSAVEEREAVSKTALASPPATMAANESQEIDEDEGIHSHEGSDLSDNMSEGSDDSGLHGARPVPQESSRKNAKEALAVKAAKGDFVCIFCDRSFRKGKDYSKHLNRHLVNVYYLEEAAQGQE

“TTCAGCACCACGGACAGCGCC (double strand) [NRSE dsDNA, biotin-labeled]”: binds (NRSF/REST (endogenous); positive control, label: biotin, variant of NRSE/RE1 dsDNA).
“TTCAGCACCACGGACAGCGCC (double strand) [NRSE/RE1 dsDNA]”: binds (NRSF/REST (cMyc-tagged); shift only at highest protein concentration tested).
“UUCAGCACCACGGACAGCGCC / GGCGCUGUCCGUGGUGCUGAA [NRSE dsRNA]”: binds (NRSF/REST (cMyc-tagged); shift at 16-fold lower protein than needed for NRSE dsDNA).
“UUCAGCACCACGGACAGCGCC / GGCGCUGUCCGUGGUGCUGAA [NRSE dsRNA, biotin-labeled]”: binds (NRSF/REST (endogenous); 60 mM KCl, 2.5 mM EDTA, 4 C, wash 350 mM KCl, label: biotin (biotin-UTP and biotin-CTP, 1:5 to natural), variant of NRSE dsRNA).
